Assay results from patent US5026848A, “Novel generation of heteroaryloxyalkyl heterocycles with antipicornaviruses activities” (Synphar Laboratories Incorporated, priority 1988, dated 1991).
At least one structure is not confirmed: it was looked up by name or label, or the drawing left a doubt.

System: HRV-1A and HRV-39
Assay: Anti-rhinovirus activity against HRV-1A and HRV-39
Details: in words

SMILES: Clc1cnn(-c2ccccc2)c1CCCCCCOc1ccc2oc3ccccc3c2c1 [Compound 37, 4-chloro-5[6-(2-dibenzofuroxy)hexyl]phenylpyrazole]
- inhibitory activity against HRV-1A and HRV-39 in vitro: remarkably inhibitory activity
